Data from the primary screen of doi:10.1371/journal.pone.0140310, rounded.

First drug in all entries: FK866, 0.05 µM, O=C(/C=C/c1cccnc1)NCCCCC1CCN(C(=O)c2ccccc2)CC1

Drugs:
PLX4720 (0.4 µM): CCCS(=O)(=O)Nc1ccc(F)c(C(=O)c2c[nH]c3ncc(Cl)cc23)c1F
BMS-536924 (1 µM): Cc1cc(N2CCOCC2)cc2[nH]c(-c3c(NC[C@@H](O)c4cccc(Cl)c4)cc[nH]c3=O)nc12
tozasertib (0.03 µM): Cc1cc(Nc2cc(N3CCN(C)CC3)nc(Sc3ccc(NC(=O)C4CC4)cc3)n2)n[nH]1
PF-562271 (0.4 µM): CN(c1ncccc1CNc1nc(Nc2ccc3c(c2)CC(=O)N3)ncc1C(F)(F)F)S(C)(=O)=O
STA-4783 (0.03 µM): CN(NC(=O)CC(=O)NN(C)C(=S)c1ccccc1)C(=S)c1ccccc1
vismodegib (5 µM): CS(=O)(=O)c1ccc(C(=O)Nc2ccc(Cl)c(-c3ccccn3)c2)c(Cl)c1
BI-78D3 (1 µM): O=c1[nH]nc(Sc2ncc([N+](=O)[O-])s2)n1-c1ccc2c(c1)OCCO2
erlotinib (4 µM): C#Cc1cccc(Nc2ncnc3cc(OCCOC)c(OCCOC)cc23)c1
FH535 (5 µM): Cc1cc([N+](=O)[O-])ccc1NS(=O)(=O)c1cc(Cl)ccc1Cl
SNS-032 (0.05 µM): CC(C)(C)c1cnc(CSc2cnc(NC(=O)C3CCNCC3)s2)o1
XAV939 (10 µM): Oc1nc(-c2ccc(C(F)(F)F)cc2)nc2c1CSCC2
lapatinib (4 µM): CS(=O)(=O)CCNCc1ccc(-c2ccc3ncnc(Nc4ccc(OCc5cccc(F)c5)c(Cl)c4)c3c2)o1
selumetinib (0.075 µM): Cn1cnc2c(F)c(Nc3ccc(Br)cc3Cl)c(C(=O)NOCCO)cc21
GW441756 (2 µM): Cn1cc(/C=C2\C(=O)Nc3cccnc32)c2ccccc21
CP-690550 (5 µM): C[C@@H]1CCN(C(=O)CC#N)C[C@@H]1N(C)c1ncnc2[nH]ccc12
bexarotene (10 µM): C=C(c1ccc(C(=O)O)cc1)c1cc2c(cc1C)C(C)(C)CCC2(C)C
ZM336372 (10 µM): Cc1ccc(NC(=O)c2cccc(N(C)C)c2)cc1NC(=O)c1ccc(O)cc1
JZL184 (5 µM): O=C(Oc1ccc([N+](=O)[O-])cc1)N1CCC(C(O)(c2ccc3c(c2)OCO3)c2ccc3c(c2)OCO3)CC1
vorinostat (0.4 µM): O=C(CCCCCCC(=O)Nc1ccccc1)NO
PD173074 (0.5 µM): CCN(CC)CCCCNc1ncc2cc(-c3cc(OC)cc(OC)c3)c(NC(=O)NC(C)(C)C)nc2n1
VX-702 (2 µM): NC(=O)c1ccc(N(C(N)=O)c2c(F)cccc2F)nc1-c1ccc(F)cc1F
OSU-03012 (5 µM): NCC(=O)Nc1ccc(-n2nc(C(F)(F)F)cc2-c2ccc3c(ccc4ccccc43)c2)cc1
vincristine (0.0005 µM): CC[C@]1(O)C[C@H]2CN(CCc3c([nH]c4ccccc34)[C@@](C(=O)OC)(c3cc4c(cc3OC)N(C=O)[C@H]3[C@@](O)(C(=O)OC)[C@H](OC(C)=O)[C@]5(CC)C=CCN6CC[C@]43[C@@H]65)C2)C1
nutlin-3 (0.5 µM): COc1ccc(C2=N[C@@H](c3ccc(Cl)cc3)[C@@H](c3ccc(Cl)cc3)N2C(=O)N2CCNC(=O)C2)c(OC(C)C)c1
AZD7762 (0.1 µM): NC(=O)Nc1cc(-c2cccc(F)c2)sc1C(=O)N[C@H]1CCCNC1
GW0742 (10 µM): Cc1cc(SCc2sc(-c3ccc(C(F)(F)F)c(F)c3)nc2C)ccc1OCC(=O)O
midostaurin (0.4 µM): CO[C@@H]1[C@H](N(C)C(=O)c2ccccc2)C[C@H]2O[C@]1(C)n1c3ccccc3c3c4c(c5c6ccccc6n2c5c31)C(=O)NC4
cisplatin (8 µM): N.N.[Cl][Pt][Cl]
decitabine (0.5 µM): Nc1ncn([C@H]2C[C@H](O)[C@@H](CO)O2)c(=O)n1
KU-0063794 (0.1 µM): COc1ccc(-c2ccc3c(N4CCOCC4)nc(N4C[C@@H](C)O[C@@H](C)C4)nc3n2)cc1CO
MK-2206 (2 µM): NC1(c2ccc(-c3nc4ccn5c(=O)[nH]nc5c4cc3-c3ccccc3)cc2)CCC1
dasatinib (0.02 µM): Cc1nc(Nc2ncc(C(=O)Nc3c(C)cccc3Cl)s2)cc(N2CCN(CCO)CC2)n1
crizotinib (1 µM): C[C@@H](Oc1cc(-c2cnn(C3CCNCC3)c2)cnc1N)c1c(Cl)ccc(F)c1Cl
vatalanib (10 µM): Clc1ccc(Nc2nnc(Cc3ccncc3)c3ccccc23)cc1
ENMD-2076 (0.2 µM): Cc1cc(Nc2cc(N3CCN(C)CC3)nc(/C=C/c3ccccc3)n2)n[nH]1
LFM-A13 (10 µM): C/C(O)=C(\C#N)C(=O)Nc1cc(Br)ccc1Br

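Human melanoma cells were exposed to two drugs together for 72 h in 1,536-well plates and read by automated microscopy after fixing and staining. The read-out is the fraction of cleaved-PARP-positive nuclei, in % of that fraction in the DMSO control; 200 means twice the control level of this apoptosis marker. Concentrations were fixed for each drug; these are the higher of two levels. These are primary screening values without error estimates. Basal and induced levels differ widely between cell lines.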 An unselected part of the screen is shown.

Partner: PD173074
COLO 792: 572
IPC-298: 110

Partner: PF-562271
COLO 792: 1050
IPC-298: 1160

Partner: OSU-03012
COLO 792: 1770
IPC-298: 654

Partner: CP-690550
COLO 792: 925
IPC-298: 263

Partner: vismodegib
COLO 792: 583
IPC-298: 1160

Partner: nutlin-3
COLO 792: 474
IPC-298: 336

Partner: crizotinib
COLO 792: 976
IPC-298: 644

Partner: vatalanib
COLO 792: 426
IPC-298: 718

Partner: BMS-536924
COLO 792: 2290
IPC-298: 757

Partner: STA-4783
COLO 792: 3720
IPC-298: 148

Partner: selumetinib
COLO 792: 976
IPC-298: 236

Partner: dasatinib
COLO 792: 1120
IPC-298: 9280

Partner: vorinostat
COLO 792: 424
IPC-298: 105

Partner: VX-702
COLO 792: 318
IPC-298: 1290

Partner: KU-0063794
COLO 792: 337
IPC-298: 729

Partner: PLX4720
COLO 792: 607
IPC-298: 1230

Partner: cisplatin
COLO 792: 833
IPC-298: 950

Partner: midostaurin
COLO 792: 2470
IPC-298: 1200

Partner: MK-2206
COLO 792: 469
IPC-298: 289

Partner: ENMD-2076
COLO 792: 843
IPC-298: 2250

Partner: FH535
COLO 792: 402
IPC-298: 515

Partner: erlotinib
COLO 792: 627
IPC-298: 495

Partner: LFM-A13
COLO 792: 482
IPC-298: 120

Partner: ZM336372
COLO 792: 442
IPC-298: 287

Partner: XAV939
COLO 792: 181
IPC-298: 182

Partner: lapatinib
COLO 792: 1230
IPC-298: 1660

Partner: JZL184
COLO 792: 711
IPC-298: 226

Partner: bexarotene
COLO 792: 781
IPC-298: 944

Partner: GW441756
COLO 792: 408
IPC-298: 186

Partner: tozasertib
COLO 792: 660
IPC-298: 265

Partner: BI-78D3
COLO 792: 317
IPC-298: 392

Partner: vincristine
COLO 792: 916
IPC-298: 445

Partner: decitabine
COLO 792: 1710
IPC-298: 7380

Partner: AZD7762
COLO 792: 1890
IPC-298: 163

Partner: SNS-032
COLO 792: 677
IPC-298: 939

Partner: GW0742
COLO 792: 600
IPC-298: 328

Repeated from the top, 4 entries:

Partner	COLO 792	IPC-298
PD173074	572	110
PF-562271	1050	1160
OSU-03012	1770	654
CP-690550	925	263